{"source": "paper PMC12040169", "about": "(PLOS Biology, 2025)", "note": "This is one part of the list.", "data": [{"test_system": "T1, CTL2-GFP (C. trachomatis L2/434/Bu, GFP-expressing)", "T1 construct": "L2/434/Bu, GFP-expressing", "parameters": "species or system HeLa; Intracellular C. trachomatis growth in HeLa cells, bulk GFP fluorescence relative to DMSO", "settings": "bulk GFP, single well; 28.5 h, 10 µM; inhibitor", "units": {"% of control remaining": "%"}, "values": [{"smiles": "O=C(O)CCCNS(=O)(=O)c1ccc(C2CCCCC2)cc1", "note": "[CBK299800]", "% of control remaining": 132.331}, {"smiles": "O=S(=O)(Cc1ccccc1)Nc1nccnc1-c1cccs1", "note": "[CBK050766]", "% of control remaining": 116.197}, {"smiles": "O=C(CCn1cccn1)N1CCC(c2cc3ncccc3[nH]2)CC1", "note": "[CBK284457]", "% of control remaining": 122.332}, {"smiles": "CC(=O)N1Cc2ccccc2OC2(CCCN(C(=O)C3CC3)C2)C1", "note": "(stereo not shown) [CBK284991]", "% of control remaining": 117.647}, {"smiles": "N#C/C(=C/c1cn(CCC(N)=O)c2ccccc12)c1ccc2c(c1)OCO2", "note": "[CBK267319]", "% of control remaining": 143.632}, {"smiles": "O=C(CC(C(=O)O)N1CCOCC1)Nc1ccc(Cl)cc1", "note": "(stereo not shown) [CBK267086]", "% of control remaining": 142.326}, {"smiles": "CCn1cc(C(=O)O)c(=O)c2cc(F)c(N3CCN(C(=S)Nc4ccc5c(c4)OCO5)CC3)cc21", "note": "[CBK268027]", "% of control remaining": 132.821}, {"smiles": "COc1cc(CN2CCN(S(=O)(=O)c3ccc(F)cc3)CC2)cc(OC)c1O", "note": "[CBK264269G]", "% of control remaining": 133.92}, {"smiles": "COC(=O)CCNc1n[nH]c(=O)[nH]c1=O", "note": "[CBK217927]", "% of control remaining": 113.356}, {"smiles": "CC(C)COc1ccccc1C(=O)NCCC(=O)O", "note": "[CBK033507]", "% of control remaining": 106.753}, {"smiles": "O=C(Cn1cnc(-c2noc(-c3cccnc3)n2)c1)Nc1ccc(Cl)cc1", "note": "[CBK287822]", "% of control remaining": 112.566}, {"smiles": "CC1CC(C)CN(C(=O)c2ccc(-n3ccnc3)c(-n3cccc3)c2)C1", "note": "(stereo not shown) [CBK285372]", "% of control remaining": 127.012}, {"smiles": "COc1ccc(CCCC(=O)Nc2cncc(OC3CCNCC3)n2)cc1OC", "note": "[CBK028437T]", "% of control remaining": 102.876}, {"smiles": "NS(=O)(=O)c1ccc(CNC(=O)c2cncc(-c3ccc(C(=O)N4CCOCC4)cc3)c2)cc1", "note": "[CBK158641]", "% of control remaining": 114.552}, {"smiles": "COc1ccc2ccccc2c1CNc1ccc(N2CCOCC2)c(C(=O)O)c1", "note": "[CBK269376]", "% of control remaining": 135.285}, {"smiles": "CS(=O)(=O)Nc1ccccc1C(=O)NCc1ccccn1", "note": "[CBK268494]", "% of control remaining": 137.426}, {"smiles": "CCOc1cccc(-c2cn3ccnc3c(N(C)CCN(C)C)n2)c1", "note": "[CBK066569]", "% of control remaining": 177.496}, {"smiles": "COc1cc(CNC(=O)c2cnoc2-c2ccc(Br)cc2)cc(OC)c1OC", "note": "[CBK154893]", "% of control remaining": 105.982}, {"smiles": "c1ccc(N2CCN(C3c4ccccc4Sc4ccccc43)CC2)cc1", "note": "[CBK066894]", "% of control remaining": 107.302}, {"smiles": "COCC(=O)N[C@H]1CCN2C(=O)c3cc(-c4ccccc4F)ccc3NC(=O)[C@@H]2C1", "note": "[CBK289553]", "% of control remaining": 106.249}, {"smiles": "Fc1cc(F)c(OCCCCOc2nccnc2N2CCNCC2)cc1F", "note": "[CBK028624T]", "% of control remaining": 100.092}, {"smiles": "CCNC(=O)NC1CC(C)(C)Cc2c1cnn2-c1ccc(OC)cc1", "note": "(stereo not shown) [CBK307313]", "% of control remaining": 125.964}, {"smiles": "CCN1CCN(C(=O)C2CC(C)=C(C)CC2C(=O)O)CC1", "note": "(stereo not shown) [CBK270311]", "% of control remaining": 144.385}, {"smiles": "CCC(=O)NC(=S)Nc1ccc(C(=O)N2CCCC2)cc1", "note": "[CBK288464]", "% of control remaining": 123.177}, {"smiles": "O=C(NC(=O)C1CCN(CC2COc3ccccc3O2)CC1)Nc1ccccc1", "note": "(stereo not shown) [CBK035267]", "% of control remaining": 151.547}, {"smiles": "Cc1nn(C)c(C)c1NC(=O)CN1CCN(c2ccccc2Cl)CC1", "note": "[CBK306058]", "% of control remaining": 104.629}, {"smiles": "CC(Oc1cccc(C#N)c1)C(=O)NCC1(N2CCOCC2)CCSC1", "note": "(stereo not shown) [CBK305780]", "% of control remaining": 169.353}, {"smiles": "Cc1nnc(N/N=C\\c2ccco2)n1N", "note": "[CBK028824C]", "% of control remaining": 76.0915}, {"smiles": "O=C1NC2(CCNCC2)Oc2ccc(-c3cccc4ncccc34)cc21", "note": "[CBK083775T]", "% of control remaining": 117.279}, {"smiles": "Cc1cc(NC(=O)CN2CCN(Cc3ccc(Cl)nc3)CC2)no1", "note": "[CBK305504]", "% of control remaining": 165.356}, {"smiles": "COCCN(C(=O)c1nc2cccnc2s1)C1CCS(=O)(=O)C1", "note": "(stereo not shown) [CBK304091]", "% of control remaining": 118.194}, {"smiles": "C=CCN(C)C(=O)[C@H]1C[C@@H](O)[C@H](O)[C@@H]2N=C(Nc3ccc(Cl)cc3)S[C@@H]21", "note": "[CBK288946]", "% of control remaining": 131.848}, {"smiles": "CN(C)C(=O)c1cn2cc(-c3cccs3)n(CC3CC3)c(=O)c2n1", "note": "[CBK307440]", "% of control remaining": 126.112}, {"smiles": "Cc1ccc(-c2csc(NC(=O)c3ccccc3C(=O)O)n2)cc1", "note": "[CBK072083]", "% of control remaining": 106.762}, {"smiles": "COCCCn1c(CCC(=O)O)ccc1-c1ccc(F)cc1", "note": "[CBK267886]", "% of control remaining": 109.519}, {"smiles": "O=S(=O)(Nc1nccnc1N1CCN(c2cnccn2)CC1)c1ccc(Cl)cc1", "note": "[CBK049664]", "% of control remaining": 154.142}, {"smiles": "O=c1[nH]c(N2CCC3(CC2)OCCO3)nc2c(-c3ccccc3Cl)csc12", "note": "[CBK291128]", "% of control remaining": 78.6965}, {"smiles": "CSc1nsc(SCC(=O)Nc2ccc(OC(C)=O)cc2)n1", "note": "[CBK268948]", "% of control remaining": 160.81}, {"smiles": "C#CCNCCCOc1ccccc1Oc1ccccc1", "note": "[CBK017707C]", "% of control remaining": 120.375}, {"smiles": "Cn1cc(CNCC2CCN(CCO)CC2)c(-c2cccnc2)n1", "note": "[CBK305153]", "% of control remaining": 94.4234}, {"smiles": "NNS(=O)(=O)c1ccc(Oc2ccc([N+](=O)[O-])cc2)cc1", "note": "[CBK261669]", "% of control remaining": 111.768}, {"smiles": "O=C(NCCn1nc(-c2ccco2)ccc1=O)C1CCCC1", "note": "[CBK283707]", "% of control remaining": 138.785}, {"smiles": "CCOC(=O)c1cnc2c(C)cc(C)cc2c1NCCCN(C)C", "note": "[CBK266021]", "% of control remaining": 217.078}, {"smiles": "O=C1c2ccccc2C(=O)N1CCOc1nccnc1-c1cnn(Cc2ccccc2)c1", "note": "[CBK107089]", "% of control remaining": 126.156}, {"smiles": "CCC(=O)Nc1ccc(C(=O)N2CCN(c3ccccc3)CC2)cc1", "note": "[CBK307425]", "% of control remaining": 138.271}, {"smiles": "O=C(O)COc1ccc(C=C2C(=O)c3ccccc3C2=O)cc1Cl", "note": "[CBK263857]", "% of control remaining": 100}, {"smiles": "CCn1c(SCC(=O)O)nnc1-c1c[nH]c2ccccc12", "note": "[CBK287089]", "% of control remaining": 111.802}, {"smiles": "COc1cc(F)cc(OC2CCNCC2)c1NC(=O)Cc1c[nH]c2ccccc12", "note": "[CBK050246T]", "% of control remaining": 101.933}, {"smiles": "O=C(O)c1sc2ncccc2c1NS(=O)(=O)c1cc(Cl)sc1Cl", "note": "[CBK050650]", "% of control remaining": 144.408}, {"smiles": "Cc1ccc(Cc2cnc(NC(=O)NC3CCOC(C)(C)C3)s2)cc1F", "note": "(stereo not shown) [CBK304139]", "% of control remaining": 96.2459}, {"smiles": "CCCn1cc(CNC(=O)c2cccc(S(=O)(=O)N3CCCC3)c2)cn1", "note": "[CBK307095]", "% of control remaining": 71.3713}, {"smiles": "CCCS(=O)(=O)NC[C@H]1C[C@@H]2CCN1C[C@@H]2c1cc(-c2ccccc2)nn1C", "note": "[CBK289095]", "% of control remaining": 104.114}, {"smiles": "O=C(O)COc1cccc2nsnc12", "note": "[CBK019749]", "% of control remaining": 124.738}, {"smiles": "Clc1ccc(-n2ncc3c(NCc4ccccc4)ncnc32)cc1", "note": "[CBK287355]", "% of control remaining": 115.203}, {"smiles": "c1cnc(N2CCCC2)c(OC2CCNC2)n1", "note": "(stereo not shown) [CBK115284]", "% of control remaining": 149.293}, {"smiles": "OCCCNc1cncc(-c2ccc(F)cc2F)n1", "note": "[CBK065851]", "% of control remaining": 182.96}, {"smiles": "O=C(O)CCC(CCC(=O)O)C(=O)O", "note": "[CBK260994]", "% of control remaining": 124.786}, {"smiles": "O=C(Cc1ccc(Cl)cc1)Nc1cccc(C(=O)Nc2ccccc2C(=O)O)c1", "note": "[CBK264750]", "% of control remaining": 119.513}, {"smiles": "Cc1nn(Cc2nnc(-c3cccs3)o2)c(C)c1Br", "note": "[CBK010809]", "% of control remaining": 132.694}, {"smiles": "O=C1N(C2CCCCC2)CC2C(c3ccccc3)ONC12O", "note": "(stereo not shown) [CBK021700]", "% of control remaining": 89.5654}, {"smiles": "CN1CCN(C(=O)c2ccc(-c3cnc(OCC4CCN(C(=O)OC(C)(C)C)CC4)nc3)cn2)CC1", "note": "[CBK170021]", "% of control remaining": 97.8657}, {"smiles": "Cc1ccc2c(c1)cc(C)c1nn(CC(=O)NC3CC3)c(=O)n12", "note": "[CBK283873]", "% of control remaining": 106.819}, {"smiles": "CCc1nn(CC(=O)N(C)C)c(=O)c2cc3sccc3n12", "note": "[CBK284031]", "% of control remaining": 108.982}, {"smiles": "S=C(Cc1csc2ccccc12)NC1CCCCC1", "note": "[CBK023515]", "% of control remaining": 124.547}, {"smiles": "CCNc1nccnc1-c1cnc(OC)nc1OC", "note": "[CBK088587]", "% of control remaining": 94.9347}, {"smiles": "O=C(Cc1cccs1)N1CCC(c2nnc(-c3ccccc3)c(-c3ccccc3)n2)CC1", "note": "[CBK286283]", "% of control remaining": 100.028}, {"smiles": "O=C(Oc1ccc2c(c1)OCO2)c1cc(S(=O)(=O)N2CCOCC2)c(Cl)cc1Cl", "note": "[CBK269709]", "% of control remaining": 122.508}, {"smiles": "Cc1c[nH]c(CN(C)c2cc([C@H]3C[C@@H](N)C3)nc(N3CCCC3)n2)n1", "note": "[CBK306798]", "% of control remaining": 118.293}, {"smiles": "CN(C)c1ccc(NC(=O)CC2S/C(=N/c3ccccc3)N(c3ccccc3)C2=O)cc1", "note": "(stereo not shown) [CBK265644]", "% of control remaining": 99.7787}, {"smiles": "CCOC(=O)C1CCCN(C(=O)Nc2cc(C)on2)C1", "note": "(stereo not shown) [CBK305661]", "% of control remaining": 122.811}, {"smiles": "Cc1cccc(C)c1NC(=O)Cn1c(SCC(N)=O)nc2ccccc21", "note": "[CBK266684]", "% of control remaining": 121.239}, {"smiles": "CCNc1nc(-c2ccc3c(c2)CCCN3S(C)(=O)=O)cs1", "note": "[CBK305861]", "% of control remaining": 100.123}, {"smiles": "CCN(CC)CCn1c(=N)n(CC(=O)c2ccc(Cl)c(Cl)c2)c2ccccc21", "note": "[CBK263455B]", "% of control remaining": 100}, {"smiles": "O=C(Cc1ccccc1)N/N=C/C1CC2CC1CC2C(F)(F)F", "note": "(stereo not shown) [CBK021488]", "% of control remaining": 105.684}, {"smiles": "COc1ccc(Nc2ccc(-c3ccc(C(=O)O)cc3)cn2)cc1", "note": "[CBK037654]", "% of control remaining": 123.346}, {"smiles": "CCOc1ccc(-c2cncc(NCCc3c[nH]c4ccccc34)n2)cc1", "note": "[CBK065876]", "% of control remaining": 190.771}, {"smiles": "Fc1ccc2[nH]c3c(c2c1)CCOC31CCN(C/C=C\\c2ccccc2)CC1", "note": "[CBK040141]", "% of control remaining": 41.3987}, {"smiles": "CCC(Oc1ccccc1)C(=O)Nc1sc2c(c1C#N)CCCC2", "note": "(stereo not shown) [CBK262091]", "% of control remaining": 88.002}, {"smiles": "CCN1CC2(CCN(CCCn3c(=O)[nH]c4ccccc43)CC2)c2ccccc21", "note": "[CBK131483]", "% of control remaining": 126.595}]}]}
